Experimental data: publication doi:10.1101/2025.03.04.641150
These are yes or no findings as the source states them, for the method shown. Some results given as binding are weak or reduced against the parent protein; the word gives no strength.

Protein sequences, listed by entry. Tags and fused reporters are not part of them.
UniProt Q13148: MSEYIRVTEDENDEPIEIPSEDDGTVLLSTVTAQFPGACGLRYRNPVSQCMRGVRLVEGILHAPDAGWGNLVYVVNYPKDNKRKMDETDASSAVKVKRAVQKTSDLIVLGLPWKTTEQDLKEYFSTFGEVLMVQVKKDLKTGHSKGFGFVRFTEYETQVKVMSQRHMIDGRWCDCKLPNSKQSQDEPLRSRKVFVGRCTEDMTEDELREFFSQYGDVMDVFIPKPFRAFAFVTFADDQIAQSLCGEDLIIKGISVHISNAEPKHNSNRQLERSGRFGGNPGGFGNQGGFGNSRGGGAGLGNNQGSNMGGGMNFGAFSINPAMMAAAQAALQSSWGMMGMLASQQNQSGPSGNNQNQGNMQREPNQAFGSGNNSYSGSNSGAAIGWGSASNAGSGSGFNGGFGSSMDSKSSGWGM

Target: TAR DNA-binding protein 43 (TDP-43) (human (endogenous in post-mortem brain tissue)) (UniProt Q13148)
Experiment: single-molecule pulldown

binding: binds
B1: calnexin (CANX) (protein, UniProt P27824 21-592)
chain: HDGHDDDVIDIEDDLDDVIEEVEDSKPDTTAPPSSPKVTYKAPVPTGEVYFADSFDRGTLSGWILSKAKKDDTDDEIAKYDGKWEVEEMKESKLPGDKGLVLMSRAKHHAISAKLNKPFLFDTKPLIVQYEVNFQNGIECGGAYVKLLSKTPELNLDQFHDKTPYTIMFGPDKCGEDYKLHFIFRHKNPKTGIYEEKHAKRPDADLKTYFTDKKTHLYTLILNPDNSFEILVDQSVVNSGNLLNDMTPPVNPSREIEDPEDRKPEDWDERPKIPDPEAVKPDDWDEDAPAKIPDEEATKPEGWLDDEPEYVPDPDAEKPEDWDEDMDGEWEAPQIANPRCESAPGCGVWQRPVIDNPNYKGKWKPPMIDNPSYQGIWKPRKIPNPDFFEDLEPFRMTPFSAIGLELWSMTSDIFFDNFIICADRRIVDDWANDGWGLKKAADGAAEPGVVGQMIEAAEERPWLWVVYILTVALPVFLVILFCCSGKKQTSGMEYKKTDAPQPDVKEEEEEKEEEKDKGDEEEEGEEKLEEKQKSDAEEDGGTVSQEEEDRKPKAEEDEILNRSPRNRKPRRE
